According to the supplement of paper PMC3334620:
Over roughly 33,000 sequences, “E-score (-0.5 to 0.5)” has its median near -0.016; the highest 2% begin near 0.3. The list shows a part of the results.

Biological target: T1, Yer184c (UniProt P39961)
T1 sequence: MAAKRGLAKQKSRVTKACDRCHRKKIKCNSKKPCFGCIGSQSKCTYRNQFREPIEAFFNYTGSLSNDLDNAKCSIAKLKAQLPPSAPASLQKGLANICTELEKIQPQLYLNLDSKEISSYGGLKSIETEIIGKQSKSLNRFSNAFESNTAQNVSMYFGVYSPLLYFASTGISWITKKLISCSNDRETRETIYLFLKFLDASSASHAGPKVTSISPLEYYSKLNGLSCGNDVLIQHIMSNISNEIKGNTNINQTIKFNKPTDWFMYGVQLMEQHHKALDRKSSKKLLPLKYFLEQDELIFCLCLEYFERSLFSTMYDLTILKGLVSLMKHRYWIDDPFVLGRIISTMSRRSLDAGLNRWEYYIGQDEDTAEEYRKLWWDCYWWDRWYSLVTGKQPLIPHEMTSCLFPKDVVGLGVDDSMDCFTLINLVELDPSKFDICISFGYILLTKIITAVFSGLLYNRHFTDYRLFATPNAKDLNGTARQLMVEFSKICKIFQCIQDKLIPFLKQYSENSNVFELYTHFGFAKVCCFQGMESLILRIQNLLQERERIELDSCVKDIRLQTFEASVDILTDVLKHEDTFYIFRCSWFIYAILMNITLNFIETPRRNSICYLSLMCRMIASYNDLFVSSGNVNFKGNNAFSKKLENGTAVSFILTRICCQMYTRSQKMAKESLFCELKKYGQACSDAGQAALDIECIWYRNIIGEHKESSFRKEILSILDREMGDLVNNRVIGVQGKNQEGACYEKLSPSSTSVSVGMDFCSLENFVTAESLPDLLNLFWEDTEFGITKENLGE
Assay: PBM E-score (8-mer binding enrichment) (E-score (-0.5 to 0.5)); higher = stronger / more preferred TF binding
Conditions: protein concentration: 100 nM; construct: GST-full length
Procedure, shortened: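 Masliner-normalised scans of fluorescent anti-GST signal were the basis for scoring. That signal came from GST-tagged yeast transcription factors applied at about 100-200 nM to double-stranded universal all-10-mer Agilent arrays on fresh or once-stripped slides. Each ungapped eight-base word, pooled with its reverse complement, received an E-score from the Universal PBM Analysis Suite.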

| Sequence | PBM E-score |
| --- | --- |
| GCTGAACA | 0.0152 |
| CAGGGTAC | -0.246 |
| CAGCCGGC | 0.391 |
| AACCCGAT | 0.0975 |
| AGAAGGCT | -0.278 |
| GGGAGTGA | -0.0149 |
| CCTGACCC | -0.117 |
| CAGCGCTA | 0.0165 |
| TACGGTAA | 0.188 |
| CTAACCAA | 0.0989 |
| AGCCGCCC | -0.0791 |
| CTATACTC | -0.184 |
| CTCGCGGC | 0.146 |
| AATTCTTG | 0.125 |
| AGTCGCAC | -0.334 |
| AGTGAGTG | 0.038 |
| CGATTCCC | -0.0539 |
| ACAAAATA | 0.0279 |
| CGTGTAGC | -0.157 |
| CCGAACAG | 0.216 |
| ACTCTAAC | 0.0815 |
| GATGAATC | 0.0272 |
| CCATAAAA | 0.13 |
| ACAATATG | 0.133 |

| Sequence | PBM E-score |
| --- | --- |
| ACATCACC | -0.124 |
| AACGCCTG | -0.104 |
| CACTTACG | 0.109 |
| CTTGAACC | 0.0363 |
| AATATATT | 0.38 |
| TCACAGAA | -0.0101 |
| GACAGCCA | -0.108 |
| AACGACGC | 0.0135 |
| ACTCTCCA | -0.13 |
| ATCCCTTC | -0.0712 |
| CGCCCAAA | 0.0692 |
| CAACCCGC | 0.0691 |
| GCCAGTGA | -0.249 |
| CGCTGAAC | 0.158 |
| CTAGCATC | -0.0387 |
| ACAACTGT | -0.135 |
| AAGAGCTC | -0.13 |
| CGGGACGC | -0.0137 |
| ACCCGATC | 0.0304 |
| AAGTGCAG | -0.216 |
| CACCTAGG | -0.267 |
| ACTGCGAG | -0.372 |
| AGTGCCTA | -0.0953 |
| AATTTGGG | -0.0948 |

3 consecutive entries from above, quoted:

| Sequence | PBM E-score |
| --- | --- |
| AAGTGCAG | -0.216 |
| CACCTAGG | -0.267 |
| ACTGCGAG | -0.372 |

Later entries.

| Sequence | PBM E-score |
| --- | --- |
| ATCCCAAT | -0.139 |
| AACTCGAC | 0.149 |
| AGAGCGCA | -0.3 |
| AAGAGGGT | -0.242 |
| AGTCAATC | -0.0555 |
| GAGCATTA | -0.0398 |
| AGGAACGC | -0.0436 |
| CTTTCGGA | 0.286 |
| CTCTCTAA | -0.188 |
| ATCTCCTA | -0.226 |
| CTGAGCCC | -0.168 |
| ACTACACC | -0.0218 |
| CAATAGAA | -0.11 |
| AGGTCTCC | -0.183 |
| GCCTGAGC | -0.144 |
| ACGTGCAC | -0.186 |
| ACTACGGG | -0.0246 |
| GTGGCAAA | -0.0971 |
| ATGGGGGG | -0.272 |
| GATATTAA | 0.282 |
| AGCGAGCG | -0.0336 |
| GATCTTAC | -0.0791 |
| GACACGTC | -0.215 |
| CTTCAAGA | 0.171 |

| Sequence | PBM E-score |
| --- | --- |
| AACTTTAG | 0.127 |
| CGAGGCGA | -0.124 |
| AGCCCTCC | -0.201 |
| AATACACG | 0.0157 |
| AGGCGGAC | 0.0942 |
| CGACATGC | 0.0106 |
| AGTTACGA | 0.107 |
| GCTGAAGC | -0.0318 |
| CTCTCTTC | -0.152 |
| AAGCTCAA | -0.122 |
| ACTGGGCT | -0.237 |
| AGTAATTG | 0.0488 |
| GTTAAGGA | 0.0993 |
| AGACTGAC | -0.118 |
| CTTGCCTA | -0.211 |
| ATGTATAG | -0.0326 |
| CTGCGTCA | -0.207 |
| CACCGGCA | 0.287 |
| AGTTCGTC | 0.111 |
| ATTGCCTA | -0.224 |
| CGCGTCCC | -0.0841 |
| AGGCTTCG | -0.0451 |
